# Source: publication PMC8626881
# The chains behind the UniProt entries cited, without tags or fusion partners.
# UniProt P47811: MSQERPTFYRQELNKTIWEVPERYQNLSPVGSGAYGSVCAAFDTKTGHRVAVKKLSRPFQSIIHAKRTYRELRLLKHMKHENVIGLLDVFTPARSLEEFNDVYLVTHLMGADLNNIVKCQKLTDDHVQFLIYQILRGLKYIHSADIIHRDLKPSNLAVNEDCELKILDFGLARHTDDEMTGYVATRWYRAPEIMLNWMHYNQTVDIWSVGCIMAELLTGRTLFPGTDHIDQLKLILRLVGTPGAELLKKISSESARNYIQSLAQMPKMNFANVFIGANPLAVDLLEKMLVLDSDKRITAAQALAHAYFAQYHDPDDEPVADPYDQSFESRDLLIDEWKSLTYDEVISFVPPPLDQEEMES
# Results are given in words; binding and its absence hold for the method and conditions named. In cells and extracts the contact can be indirect. Some results given as binding are weak or reduced against the parent protein; the word gives no strength.
# Target: p38α (mouse (endogenous in BMDCs)) (UniProt P47811)
# Assay: co-IP; DCs treated with OVA@DDAB/PLGA Nv or blank group, lysed in 50 mM Tris pH 8.0, 150 mM NaCl, 0.25% NP-40, 1 mM DTT, protease inhibitors; immunoprecipitated with anti-p38α or control IgG; Western blot with anti-MKK3
binder,measurement,value
"mitogen-activated protein kinase 3 (MKK3) (enzyme, UniProt O09110 1-347) MESPAASPPASLPQTKGKSKRKKDLRISCVSKPPVSNPTPPRNLDSRTFITIGDRNFEVEADDLVTISELGRGAYGVVEKVRHAQSGTIMAVKRIRATVNTQEQKRLLMDLDINMRTVDCFYTVTFYGALFREGDVWICMELMDTSLDKFYRKVLEKNMKIPEDILGEIAVSIVRALEHLHSKLSVIHRDVKPSNVLINKEGHVKMCDFGISGYLVDSVAKTMDAGCKPYMAPERINPELNQKGYNVKSDVWSLGITMIEMAILRFPYESWGTPFQQLKQVVEEPSPQLPADQFSPEFVDFTSQCLRKNPAERMSYLELMEHPFFTLHKTKKTDIAAFVKEILGEDS",binding,binds
